Laboratory results as given in patent US20050026933A1, “Use of a combination of an epidermal growth factor receptor kinase inhibitor and cytotoxic agents for treatment and inhibition of cancer” (Wyeth Holdings Corporation, priority 2003, published 2005).
Some of these results come from one statement about several compounds together.

Key:
[1] = system: LoVo colon carcinoma cells; test: LoVo colon carcinoma xenograft in athymic nu/nu mice; format: in vivo, mouse xenograft of human tumor cells; conditions: cisplatin study LoVo; 20 mg/kg EKB-569 PO 20 days; 3 mg/kg cisplatin IP days 1, 5, 9
Experimental: In all of the experiments, athymic nu/nu female mice (Charles River Laboratories) were injected SC (subcutaneously) with either 7×10^6 or 1×10^7 LoVo colon carcinoma cells or 5×10^6 GEO colon carcinoma cells. When tumors attained a mass of between 80 and 120 mg (Day 0), animals were randomized into treatment groups each containing between 5 and 20 animals, (dependent upon the experiment). Mice were treated orally (PO) with EKB-569 or vehicle control for 15 to 20 days, depending upon the experiment. EKB-569 was formulated in 0.5% Methocel, 0.4% Tween 80. […] Tumor mass ([Length×Width^2]/2) was determined every seven days post staging for up to 35 days. The relative tumor growth, (Mean tumor mass on day measured divided by the mean tumor mass on day zero), and the percent Tumor/Control, (% T/C), was then calculated for each treatment group for as long as the control group remained. […] The data was analyzed via Student's one-tailed t-test. […]
The activity of EKB-569 in combination with paclitaxel was assessed using the human colon carcinoma lines LoVo and GEO. […]
(§1) The activity of EKB-569 in combination with 5-FU was assessed in LoVo and GEO xenografts. […]
The activity of EKB-569 in combination with cisplatin was assessed in LoVo and GEO xenografts. […]

[2] = system: GEO colon carcinoma cells; test: GEO colon carcinoma xenograft in athymic nu/nu mice; format: in vivo, human; conditions: cisplatin study GEO; 80 mg/kg EKB-569 PO 15 days; 3 mg/kg cisplatin IP days 1, 5, 9, 13
Experimental: In all of the experiments, athymic nu/nu female mice (Charles River Laboratories) were injected SC (subcutaneously) with either 7×10^6 or 1×10^7 LoVo colon carcinoma cells or 5×10^6 GEO colon carcinoma cells. When tumors attained a mass of between 80 and 120 mg (Day 0), animals were randomized into treatment groups each containing between 5 and 20 animals, (dependent upon the experiment). Mice were treated orally (PO) with EKB-569 or vehicle control for 15 to 20 days, depending upon the experiment. EKB-569 was formulated in 0.5% Methocel, 0.4% Tween 80. Cytotoxic agents, (paclitaxel, 5-FU and cisplatin), were given either by […] (IP) or intravenous (IV) administration on either days 1, 5 and 9 or on days 1, 5, 9 and 13, depending upon the experiment. Tumor mass ([Length×Width^2]/2) was determined every seven days post staging for up to 35 days. The relative tumor growth, (Mean tumor mass on day measured divided by the mean tumor mass on day zero), and the percent Tumor/Control, (% T/C), was then calculated for each treatment group for as long as the control group remained. The % T/C is defined as the Mean Relative Tumor Growth of the Treated Group divided by the Mean Relative Tumor Growth of Vehicle Control Group multiplied by 100. The data was analyzed via Student's one-tailed t-test. […]
as §1

In the case of `CCOc1cc2ncc(C#N)c(Nc3ccc(F)c(Cl)c3)c2cc1NC(=O)C=CCN(C)C` [EKB-569, 4-dimethylamino-but-2-enoic acid [4-(3-chloro-4-fluoro-phenylamino)-3-cyano-7-ethoxy-quinolin-6-yl]-amide], the tumor growth inhibition [1] was “no more than 50%” and the tumor growth inhibition [2] was “no more than 50%”.
